# According to the supplement of paper PMC11060735:
# “And” between values parts separate entries of the source, which are not always exact repeats. Equal values may be shown once. Where a name gives a salt, the structure may show the parent alone. In all, about 1,800 compounds were measured (“GFP- (p16Ink4a-) cell count relative to negative-control wells”: median about 0.99, lowest 2% from about 0.5 on). This is one part of the list.
# Test system: mouse p16Ink4a+/- lung fibroblasts (INKBRITE, bleomycin-injured)
# Test: GFP- (p16Ink4a-) cell count relative to negative-control wells (fold of vehicle); higher = more p16Ink4a- cells surviving
# Conditions: 1 µM; 3 days
row,SMILES,GFP-
1,CN[C@H]1CC[C@@H](c2ccc(Cl)c(Cl)c2)c2ccccc21 [Sertraline],0.858
2,"CCc1c2c(nc3ccc(OC(=O)N4CCC(N5CCCCC5)CC4)cc13)-c1cc3c(c(=O)n1C2)COC(=O)[C@]3(O)CC [Irinotecan, Irinotecan Hydrochloride (trihydrate)]",0.771 and 0.928
3,CC(C(=O)O)c1ccc(C(=O)c2cccs2)cc1 (stereo not given) [Suprofen],1.06
4,Fc1ccc([C@@H]2CCNC[C@H]2COc2ccc3c(c2)OCO3)cc1 [Paroxetine],1.02
5,"Cn1c(=O)c2nc[nH]c2n(C)c1=O [Aminophylline, Theophylline]",0.906
6,CCn1cc(C(=O)O)c(=O)c2cc(F)c(N3CCNCC3)nc21 [Enoxacin],1.15
7,CCOc1cc2ncc(C#N)c(Nc3ccc(OCc4ccccn4)c(Cl)c3)c2cc1NC(=O)/C=C/CN(C)C [Neratinib],1.03
8,NC(CO)C(=O)NNCc1ccc(O)c(O)c1O (stereo not given) [Benserazide],1.08
9,O=C1Nc2ccc(I)cc2/C1=C/c1cc(Br)c(O)c(Br)c1,1.02
10,"CC1=C(/C=C/C(C)=C/C=C/C(C)=C/C(=O)O)C(C)(C)CCC1 [Tretinon, Tretinoin]",1.13
11,Nc1nc(O)c2ncn(CCC(CO)CO)c2n1 [Penciclovir],1.05
12,Cc1[nH]c(/C=C2\C(=O)Nc3ccc(S(=O)(=O)N(C)c4cccc(Cl)c4)cc32)c(C)c1C(=O)N1CCN(C)CC1,0.704
13,CC(=O)O[C@]1(C(C)=O)CC[C@H]2[C@@H]3C[C@H](C)C4=CC(=O)CC[C@]4(C)[C@H]3CC[C@@]21C [Medroxyprogesterone Acetate],1.01
14,O=S(=O)(NCCNC/C=C/c1ccc(Br)cc1)c1cccc2cnccc12,1.07
15,C[C@H](CCC(=O)O)[C@H]1CC[C@H]2[C@@H]3CC[C@@H]4C[C@H](O)CC[C@]4(C)[C@H]3CC[C@]12C [Lithocholic acid],0.96
16,COc1c(C)c2c(c(O)c1C/C=C(\C)CCC(=O)OCCN1CCOCC1)C(=O)OC2 [Mycophenolate Mofetil],0.685
17,COC(=O)c1ccc2c(/C(=N/c3ccc(N(C)C(=O)CN4CCN(C)CC4)cc3)c3ccccc3)c(O)[nH]c2c1 [Nintedanib],0.767
18,Brc1c(NC2=NCCN2)ccc2nccnc12 [Brimonidine],0.918
19,CCC(CC)CC1(C(=O)Nc2ccccc2SC(=O)C(C)C)CCCCC1 [Dalcetrapib],1.06
20,COc1ccc(-c2oc3c(CC=C(C)C)c(OC4O[C@H](CO)[C@@H](O)[C@H](O)[C@H]4O)cc(O)c3c(=O)c2OC2O[C@@H](C)[C@H](O)[C@@H](O)[C@H]2O)cc1 (stereo not given in full) [Icariin],0.859

# Shown with bars between the fields: part of the list above
row | SMILES | GFP-
1 | CN[C@H]1CC[C@@H](c2ccc(Cl)c(Cl)c2)c2ccccc21 [Sertraline] | 0.858
2 | CCc1c2c(nc3ccc(OC(=O)N4CCC(N5CCCCC5)CC4)cc13)-c1cc3c(c(=O)n1C2)COC(=O)[C@]3(O)CC [Irinotecan, Irinotecan Hydrochloride (trihydrate)] | 0.771 and 0.928
